Each structure is given as a SMILES string.

This test deals with C. elegans dauers. Briefly: Dauer recovery assay on drug plates. In kind it is in vivo. The note with it: for dauer recovery after temperature downshift with food: 15 degrees, atropine 1 mM. As to the method: Minimal media plates were used for the drug assays: 3.0 g NaCl, 20 g agarose (Sigma-Type II #A6877) and 970 ml of water. The autoclaved solution was cooled to 50-55° C. before 25 ml of 1M KPO4 (pH 6.0), 1.0 ml 1M CaCl2, 1.0 ml of 1M MgSO4, and 1 ml of 5 mg/ml cholesterol were added. In some assays, Escherichia coli (DH5α) bacteria arrested with streptomycin was added to each plate.
In some experiments, 100-200 eggs or synchronized L1s were put onto the drug plates. For all experiments described herein, about 10,000 L1s were placed in 10 ml of S Medium containing 1-2 ml of a 0.4% (w/v) solution of Escherichia coli DH5α bacteria in M9 solution (Wood (1988) (Cold Spring Harbor Laboratory Press, Cold Spring Harbor, N.Y.)) arrested with streptomycin, in a 25 ml flask on a rotating heated water bath at 25° C. For wild-type N2 dauers, 600 μl of the 0.4% bacterial solution and pheromone was also added to flask as described in Gottlieb and Ruvkun (1994) Genetics 137:107120. The pheromone preparation is a solution prepared as follows. Animals were grown in a large flask for several generations, and then spun down. The supernatant was boiled down to a brownish powder and then ethanol extracted. After 72 hours of liquid growth, animals were centrifuged and the supernatant removed. Animals were then resuspended in a 15 ml tube with a pre-heated 25° C. solution of 1% SDS and tubes were placed on a rocker at 25° C. for 30 minutes. Animals were centrifuged and the SDS removed. Animals were washed with either M9 or S medium (Wood (1988) (Cold Spring Harbor Laboratory Press, Cold Spring Harbor, N.Y.)) 4-6 times. After a final spin, 100-200 dauers were placed onto the drug plates without food. 24 and 48 hours later, plates were scored for the number of dauers and non-dauer adults.
For each strain tested, a control plate without any drug, with and without food was also tested. With no drug, there was 40% recovery in N2 dauers. The high value for the control plate in N2 may have been due to experimental procedure. […]

Take `CN1[C@@H]2CC[C@H]1C[C@@H](OC(=O)C(CO)c1ccccc1)C2` (stereo partly drawn) [atropine]: the “dauer recovery after temperature downshift with food” value runs as follows: (daf-2(e1370) dauers) “completely inhibited dauer recovery”; (daf-7(e1372) dauers) “completely inhibited dauer recovery”. Moreover, the “remained arrested at the dauer stage” value (wild-type N2 dauers, bacterial food + 1 mM atropine, 25 degrees, 42 hours) worked out at 82%.

For the origin of these results see US6861256B2, “Therapeutic and diagnostic tools for impaired glucose tolerance conditions” (The General Hospital Corporation, priority 1997, dated 2005).
